In publication PMC12431657, “Discovery and mechanistic insights of dibenzoylmethane as a broad spectrum inhibitor of coronavirus” (PLOS Pathogens, 2025):
Counter-ions that a name gives are not always drawn. Like-named read-outs stand apart in the source and are kept apart here. Among all 3,300 compounds or so, about 95 (3%) showed an effect of 50% or more. This is one part of the list.

Test system: HCoV-229E
Design: species or system Huh-7; HTS, protection from HCoV-229E induced cell death, luminescent cell viability (CellCounting-Lite 2.0), inhibition rate
Conditions: 24 h post infection, 1 h compound pre-incubation, 10 µM, inhibitor

SMILES	229E Inhibition rate	229E Inhibition rate (229E Inhibition rate, 24 h)
C[C@@H]1O[C@@H](O[C@@H]2[C@@H](O)[C@H](OCCc3ccc(O)c(O)c3)O[C@H](COC(=O)/C=C/c3ccc(O)c(O)c3)[C@H]2O)[C@H](O)[C@H](O)[C@H]1O [Isoacteoside]	4.2%	–
Oc1ccc(CCc2cc(O)cc(O)c2)cc1 [Dihydroresveratrol]	10.7%	–
C/C=C/C[C@@H](C)[C@@H](O)[C@H]1C(=O)N[C@@H](C(C)C)C(=O)N(C)CC(=O)N(C)[C@@H](CC(C)C)C(=O)N[C@@H](C(C)C)C(=O)N(C)[C@@H](CC(C)C)C(=O)N[C@@H](C)C(=O)N[C@H](C)C(=O)N(C)[C@@H](CC(C)C)C(=O)N(C)[C@@H](CC(C)C)C(=O)N(C)[C@@H](C(C)C)C(=O)N1C [Cyclosporin D]	41.6%	–
CC(C)=CCc1c(O)ccc(-c2coc3cc(O)cc(O)c3c2=O)c1O [Licoisoflavone A]	0%	–
CC(C)CCC[C@@H](C)[C@H]1CC[C@H]2[C@@H]3CCC4=CC(=O)CC[C@]4(C)[C@H]3CC[C@]12C [Cholestenone]	3.3%	–
COc1cc2c(cc1OC)OC(C)(C)C=C2 [Precocene II]	11.1%	–
C=C1[C@H](O)C[C@H]2[C@@H](/C=C(/C)C(=O)[C@@]3(O)C[C@H](C)[C@H](O)[C@@H]3[C@H]1O)C2(C)C [7beta-Hydroxylathyrol]	29.3%	–
COC(=O)C1=C(O)c2ccccc2C(=O)[C@]1(CC=C(C)C)C1=CC(=O)c2ccccc2C1=O [Rubipodanone A]	31.1%	–
CC(C)C[C@H]1C(=O)O[C@H](Cc2ccccc2)C(=O)N(C)[C@@H](CC(C)C)C(=O)O[C@H](C)C(=O)N(C)[C@@H](CC(C)C)C(=O)O[C@H](Cc2ccccc2)C(=O)N(C)[C@@H](CC(C)C)C(=O)O[C@H](C)C(=O)N1C [PF 1022A]	4.4%	–
O=C(O)/C=C/c1cccc(O)c1 [(E)-m-Coumaric acid]	44.6%	–
O=C(O)CC(=O)C(=O)O [Oxaloacetic acid]	12.8%	–
Nc1ccn([C@H]2C[C@H](O)[C@@H](CO)O2)c(=O)n1 [2'-Deoxycytidine]	14.3%	–
COc1ccc(-c2cc(=O)c3c(OC)c(OC)c(OC)cc3o2)cc1 [Scutellarein tetramethyl ether]	23.3%	–
C=CC(=C)CC/C=C(\C)CCC=C(C)C [(E)-β-Farnesene]	12.7%	–
Cc1ncc(CO)c(C=O)c1O [Pyridoxal hydrochloride]	31.1%	–
COc1cc2oc(=O)ccc2c(OC)c1C[C@@H](O)C(C)(C)O [Toddalolactone]	9.6%	–
C/C=C(\C)C(=O)O[C@@H]1c2cc(OC)c(OC)c(OC)c2-c2c(cc3c(c2OC)OCO3)C[C@H](C)[C@@]1(C)O [Tigloylgomisin P]	40.2%	–
CC(C)=CCC[C@](C)(O[C@@H]1O[C@H](CO[C@@H]2OC[C@H](O)[C@H](O)[C@H]2O)[C@@H](O)[C@H](O)[C@H]1O)[C@H]1CC[C@]2(C)[C@@H]1[C@H](O)C[C@@H]1[C@@]3(C)CC[C@H](O[C@@H]4O[C@H](CO)[C@@H](O)[C@H](O)[C@H]4O[C@@H]4O[C@H](CO)[C@@H](O)[C@H](O)[C@H]4O)C(C)(C)[C@@H]3CC[C@]12C [Ginsenoside Rb2]	8.6%	–
C[C@@H]1O[C@@H](O[C@H]2[C@H](O)[C@@H](O)[C@H](OC[C@H]3O[C@@H](OC(=O)[C@]45CCC(C)(C)C[C@H]4C4=CC[C@@H]6[C@@]7(C)CC[C@H](O[C@@H]8OC[C@H](O)[C@H](O)[C@H]8O)[C@@](C)(CO)[C@@H]7CC[C@@]6(C)[C@]4(C)CC5)[C@H](O)[C@@H](O)[C@@H]3O)O[C@@H]2CO)[C@H](O)[C@H](O)[C@H]1O [Hederacoside D]	–	40.4%
NC(=O)C[C@H](N)C(=O)O [L-Asparagine]	8.5%	–
CC1=CCCC(C)(C)[C@H]1/C=C/C(C)=C/C=C/C(C)=C/C=C/C=C(C)/C=C/C=C(C)/C=C/C1=C(C)CCCC1(C)C [α-Carotene]	29.7%	–
CCCCCCCCCCC(=O)OC [Methyl undecanoate]	56.2%	–
O[C@@H]1[C@@H](O)[C@H](OC/C=C/c2ccccc2)O[C@H](CO[C@@H]2OC[C@H](O)[C@H](O)[C@H]2O)[C@H]1O [Rosavin]	56.6%	–
O=C(/C=C/c1ccc(O)cc1)NCCc1c[nH]c2ccc(O)cc12 [N-(p-Coumaroyl) Serotonin]	20.1%	–
C[C@H](O)[C@@H](O)[C@@H](O)[C@H](O)C=O [(-)-Fucose]	14.7%	–
COc1cc([C@H]2Oc3ccc([C@H]4Oc5cc(O)cc(O)c5C(=O)[C@@H]4O)cc3O[C@@H]2CO)ccc1O [Isosilybin A]	8.9%	–
CCCCCCCCCCCCCCCCCCCCCC(=O)O [Docosanoic acid]	3.6%	–

Shown field by field: part of the list above
COc1cc2c(cc1OC)OC(C)(C)C=C2 [Precocene II]
  229E Inhibition rate: 11.1%
C=C1[C@H](O)C[C@H]2[C@@H](/C=C(/C)C(=O)[C@@]3(O)C[C@H](C)[C@H](O)[C@@H]3[C@H]1O)C2(C)C [7beta-Hydroxylathyrol]
  229E Inhibition rate: 29.3%

Continued.

SMILES	229E Inhibition rate	229E Inhibition rate (229E Inhibition rate, 24 h)
NCCCCCC(=O)O [6-Aminocaproic acid]	7.9%	–
C=C[C@H]1CN2CC[C@H]1C[C@@H]2[C@@H](O)c1ccnc2ccc(OC)cc12 [Quinidine]	–	36.6%
C[C@@H]1CC[C@@]2(OC1)O[C@H]1C[C@H]3[C@@H]4CC=C5C[C@@H](O)CC[C@]5(C)[C@H]4CC[C@]3(C)[C@H]1[C@@H]2C [Diosgenin]	42.1%	–
O=C(c1ccccc1)c1ccccc1 [Benzophenone]	0%	–
CC(C)=CCC[C@](C)(O)[C@H]1CC[C@]2(C)[C@@H]1[C@H](O)C[C@@H]1[C@@]3(C)CC[C@H](O)C(C)(C)[C@@H]3[C@@H](O)C[C@]12C [(20S)-Protopanaxatriol]	10%	–
NCC(O)c1ccc(O)cc1 (stereo not drawn) [Octopamine (hydrochloride)]	41.3%	–
COc1ccc(-c2cc(=O)c3c(O)cc(O[C@@H]4O[C@H](C(=O)O)[C@@H](O)[C@H](O)[C@H]4O)cc3o2)cc1O [DiosMetin 7-O-β-D-Glucuronide]	23%	–
O=c1cc(-c2ccccc2)c2c(O)cc(O)cc2o1 [LC3-mHTT-IN-AN2]	50.8%	–
C[S+](CC[C@H](N)C(=O)[O-])C[C@H]1O[C@@H](n2cnc3c(N)ncnc32)[C@H](O)[C@@H]1O (stereo partly drawn) [S-Adenosyl-L-methionine (tosylate)]	10.1%	–
OCCc1ccccc1 [2-Phenylethanol]	9.3%	–
CCCCC/C=C\C/C=C\C/C=C\CCCCC(=O)O [Gamma-Linolenic acid]	44.5%	–
CC(C)=CCC[C@@](C)(O)[C@H]1CC[C@]2(C)[C@@H]1[C@H](O)C[C@@H]1[C@@]3(C)CC[C@H](O)C(C)(C)[C@@H]3CC[C@]12C [(20R)-Protopanaxadiol]	7.2%	–
OC[C@H]1O[C@@H](Oc2c(O)cc(O)cc2/C=C/c2ccc(O)cc2)[C@H](O)[C@@H](O)[C@@H]1O [2,3,5,4'-Tetrahydroxystilbene 2-O-β-D-glucoside]	20.8%	–
CC1=C[C@]23C(=O)[C@@H](C=C4COC(C)(C)O[C@H]4C2(O)[C@H]1O)[C@H]1[C@@H](C[C@H]3C)C1(C)C (stereo partly drawn) [Ingenol-5,20-acetonide]	3.3%	–
CCCC(N)C(=O)O (racemic) [DL-Norvaline]	14.1%	–
O=C(O)c1ccc2c(c1)OCO2 [Piperonylic acid]	22.5%	–
O=c1ccc2cc(O[C@@H]3O[C@H](CO)[C@@H](O)[C@H](O)[C@H]3O)c(O)cc2o1 [Esculin]	8.8%	–
COc1cc(O)c2c(=O)c(OC)c(-c3ccc(OC)c(O)c3)oc2c1 [Ayanin]	20.7%	–
NCCCS(=O)(=O)O [Tramiprosate]	14%	–
C=C1C(=O)O[C@H]2C[C@@H](C)[C@@H]3CCC(=O)[C@@]3(C)[C@@H](OC(C)=O)[C@H]12 [Ergolide]	57.9%	–
Cn1c(=O)c2[nH]c(=O)[nH]c2n(C)c1=O [1,3-Dimethyluric acid]	7.1%	–
C/C=C(/C)C(=O)O[C@H]1c2cc3c(c4c2[C@@]2(CO4)C(=O)C(OC)=C(OC)C=C2C[C@@H](C)[C@H]1C)OCO3 [Heteroclitin D]	47.7%	–
C/C(=C/CC[C@]1(CO)CC[C@]2(C)[C@H](CC[C@@H]3[C@@]4(C)CC[C@H](O[C@@H]5O[C@H](CO)[C@@H](O)[C@H](O)[C@H]5O[C@@H]5O[C@H](CO)[C@@H](O)[C@H](O)[C@H]5O)[C@@](C)(CO[C@@H]5O[C@H](CO)[C@@H](O)[C@H](O)[C@H]5O)[C@@H]4CC[C@]32C)[C@H]1O)CO [Hosenkoside C]	18.4%	–
C/C=C(\C)C(=O)O[C@H]1[C@H](O)[C@]2(COC(C)=O)[C@H](O)C[C@]3(C)C(=CC[C@@H]4[C@@]5(C)CC[C@H](O[C@@H]6O[C@H](C(=O)O)[C@@H](O[C@@H]7O[C@H](CO)[C@@H](O)[C@H](O)[C@H]7O)[C@H](O)[C@H]6O[C@@H]6O[C@H](CO)[C@@H](O)[C@H](O)[C@H]6O)[C@](C)(CO)[C@@H]5CC[C@]43C)[C@@H]2CC1(C)C [Isoescin IA]	9.5%	–
CC1(C)CC(=O)CC(C)(C)N1 [Triacetonamine]	5.6%	–
CCCCCCCCCCCCCCCCCCCCCCCCCCCC(=O)O [Octacosanoic acid]	15.5%	–
C=C(CC[C@@H](C(=O)O)[C@H]1[C@H](O)C[C@@]2(C)C3=CC[C@@H](C(=C)C)[C@](C)(CCC(=O)O)C3=CC[C@]12C)C(C)C [Poricoic acid A]	20.2%	–

Looked up by structure from above:
SMILES	229E Inhibition rate	229E Inhibition rate (229E Inhibition rate, 24 h)
O=c1ccc2cc(O[C@@H]3O[C@H](CO)[C@@H](O)[C@H](O)[C@H]3O)c(O)cc2o1 [Esculin]	8.8%	–
CC(C)CCC[C@@H](C)[C@H]1CC[C@H]2[C@@H]3CCC4=CC(=O)CC[C@]4(C)[C@H]3CC[C@]12C [Cholestenone]	3.3%	–
O=C(O)/C=C/c1cccc(O)c1 [(E)-m-Coumaric acid]	44.6%	–
